Measured values: patent publication US4902690A, “Pest controlling compositions” (The General Hospital Corporation, priority 1988, dated 1990)
For at least one compound, name, drawing or mass did not settle the structure.

Tested on: octopamine-sensitive adenylate cyclase (firefly lantern octopamine receptor)
Assay: Octopamine-sensitive adenylate cyclase activation, firefly light organ broken cell preparation
Assay type: biochemical, firefly (Photinus pyralis)
Details: Table 1, phenylethylamines; for Ka^oct /Ka^B ratio: >1 = better than (±)-p-octopamine; for Vmax (% OCT): maximal activation as % of that by (±)-p-octopamine, N.A. = No Activity

SMILES	Ka^oct /Ka^B ratio	Vmax (% OCT)
NCC(O)c1ccccc1 (racemic) [(±)-phenylethanolamine]	0.11	45 ± 1 % OCT
NCC(O)c1ccc(Cl)cc1Cl (stereo not drawn) [2,4-dichlorophenylethanolamine]	0.67	14 ± 1 % OCT
NCC(O)c1ccc(F)cc1 (stereo not drawn) [p-fluoro-phenylethanolamine]	0.11	72 ± 8 % OCT
